The values below come from publication doi:10.1101/2024.03.10.583603.

Sequences of proteins named here, by UniProt entry; tags and fusion partners are left off. A change or cut given only in a name is not applied to a line headed by its entry.
UniProt P62837: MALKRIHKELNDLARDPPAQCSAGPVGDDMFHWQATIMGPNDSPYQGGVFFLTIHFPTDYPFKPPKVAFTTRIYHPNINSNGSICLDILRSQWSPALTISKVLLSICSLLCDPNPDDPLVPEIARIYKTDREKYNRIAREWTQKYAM

Results are given in words; binding and its absence hold for the method and conditions named.

This assay concerns the target Ube2d2^S22R (UniProt P62837). As to the kind of experiment: AUC.

For “Ube2d2^S22R (from UniProt P62837 1-147) (enzyme)”, the binding entry is “no binding (tested: 15 µM)”.
